## Screening data, single-dose tests

Protein sequences, listed by entry. Tags and fused reporters are not part of them. Residues count along the entry.
UniProt Q8IDJ8, 1-583: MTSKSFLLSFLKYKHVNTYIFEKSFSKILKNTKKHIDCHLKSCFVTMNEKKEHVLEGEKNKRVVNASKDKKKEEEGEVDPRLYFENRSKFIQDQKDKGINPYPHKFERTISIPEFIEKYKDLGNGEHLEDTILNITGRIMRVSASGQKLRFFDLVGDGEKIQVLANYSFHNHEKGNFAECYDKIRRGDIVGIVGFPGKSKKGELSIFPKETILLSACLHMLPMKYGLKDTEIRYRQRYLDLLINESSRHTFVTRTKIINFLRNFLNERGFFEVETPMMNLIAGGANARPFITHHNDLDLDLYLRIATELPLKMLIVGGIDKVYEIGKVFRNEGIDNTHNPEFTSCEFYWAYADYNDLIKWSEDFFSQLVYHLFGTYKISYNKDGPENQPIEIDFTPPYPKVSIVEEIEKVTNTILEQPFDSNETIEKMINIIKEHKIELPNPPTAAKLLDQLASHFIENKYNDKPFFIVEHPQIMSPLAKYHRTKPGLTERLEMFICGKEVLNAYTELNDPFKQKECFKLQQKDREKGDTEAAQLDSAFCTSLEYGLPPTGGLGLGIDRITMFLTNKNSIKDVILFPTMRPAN
UniProt P9WPC5, whole entry: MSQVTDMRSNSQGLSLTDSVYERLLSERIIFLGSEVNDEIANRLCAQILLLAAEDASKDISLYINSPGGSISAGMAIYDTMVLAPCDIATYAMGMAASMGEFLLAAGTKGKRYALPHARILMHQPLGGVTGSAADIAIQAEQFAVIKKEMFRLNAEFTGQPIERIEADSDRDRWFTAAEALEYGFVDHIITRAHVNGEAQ
UniProt P9WPC3, whole entry partner: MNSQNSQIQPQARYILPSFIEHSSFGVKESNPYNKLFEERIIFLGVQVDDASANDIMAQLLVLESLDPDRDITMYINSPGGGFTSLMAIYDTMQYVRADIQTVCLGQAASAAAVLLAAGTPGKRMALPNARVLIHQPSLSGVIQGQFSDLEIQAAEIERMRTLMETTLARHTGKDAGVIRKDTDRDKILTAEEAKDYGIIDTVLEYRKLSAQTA
UniProt P9WFT3, whole entry: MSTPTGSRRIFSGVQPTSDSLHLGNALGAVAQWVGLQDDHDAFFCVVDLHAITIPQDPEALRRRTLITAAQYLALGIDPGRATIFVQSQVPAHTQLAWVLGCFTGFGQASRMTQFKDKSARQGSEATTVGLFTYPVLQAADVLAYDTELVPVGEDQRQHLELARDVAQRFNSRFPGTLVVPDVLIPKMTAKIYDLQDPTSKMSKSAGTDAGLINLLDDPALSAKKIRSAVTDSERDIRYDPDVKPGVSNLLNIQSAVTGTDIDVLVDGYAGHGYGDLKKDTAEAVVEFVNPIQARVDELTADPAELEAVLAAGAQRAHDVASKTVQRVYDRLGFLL

The values are deposited in ChEMBL (CHEMBL3988442, “University of Dundee, Small-Polar-MMV Screening Library” (2021)).

PfKRS1: 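Enzyme assay of the cytosolic lysyl-tRNA synthetase in 384-well plates, read by luminescence. Target: Lysine-tRNA ligase, Plasmodium falciparum 3D7 (UniProt Q8IDJ8). Compounds at 30 µM. Direction is inferred from only a few compounds that gave an IC50; most scored high, so higher reads as stronger inhibition. About 69,000 compounds were tested under these conditions; 0.071% (about 49) showed 50% or more at least once.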
ClpP1P2: 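ClpP1P2, Mycobacterium tuberculosis (UniProt P9WPC5 and UniProt P9WPC3). Protease assay of ClpP1P2, read by the AMC dye that it sets free. Compounds at 50 µM. Direction is inferred from only a few compounds that gave an IC50; most scored high, so higher reads as stronger inhibition. Most other retested compounds had strongly negative values. Of about 69,000 compounds tested this way, about 10 (0.015%) reached 50% or more in at least one test.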
MtTrpRS: 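Enzyme assay of tryptophanyl-tRNA synthetase; the read-out is not stated. Target: Tryptophan-tRNA ligase, Mycobacterium tuberculosis (UniProt P9WFT3). Concentration: 10 µM. Higher most likely means stronger inhibition; the record gives no direction and few retests gave an IC50. Of about 65,000 compounds tested this way, about 64 (0.098%) reached 50% or more in at least one test.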

The filed quantity is “Percent Effect” (%).
The controls that fix the scale are not given in the record; negative values are as filed.
Compounds were drawn at random from those tested, without regard to their results.
A dash means the value is not listed here; it may have been measured.

structure,PfKRS1,ClpP1P2,MtTrpRS
O=C(C[C@H]1[C@H]2CN(Cc3ccsc3)C[C@@H]12)N1CCCC1,2.363,-11.64,-5.901
O=C(NCc1ccncc1)Nc1cc(C(F)(F)F)c[nH]c1=O,-0.1067,-8.761,-2.288
CN1CCC(C(=O)N2CCC(c3ccc4c(N)n[nH]c4n3)CC2)CC1,2.151,-9.002,-9.103
Cc1nc(CN2C(=O)C[C@H]3[C@H]2CCN3C2CCOC2)cs1 (stereo not given in full),0.7687,3.879,7.362
CCN1CCN(C(=O)c2cnc3c(cnn3C3CCCC3)c2)CC1,-2.281,8.497,-8.55
CCOC(=O)N1CCN(C(=O)c2snnc2-c2ccccc2)CC1,3.094,-1.757,0.154
COc1c(C2CCCN2Cc2noc(C(C)C)n2)c(C)nn1C (stereo not given),0.6256,22.43,8.051
Cc1oncc1C(=O)N1CCC2(CC1)CC(c1ccccc1)C(=O)N2C (stereo not given),3.18,-2.799,-4.722
C[C@@H]1CN(C(=O)c2ccc(=O)[nH]c2)CC[C@@]1(O)C1CCOCC1,6.067,-9.389,-4.42
CCN(Cc1nc2c(cnn2C)c(=O)[nH]1)c1ccccc1C,6.672,10.4,0.7498
Cc1ccc2nnc(C(=O)NCC3CCCC3)nc2c1,-4.276,13.53,-5.302
O=C(NCCNc1ncccn1)C1CCCC1,2.88,14.13,10.6
Cc1ccc(CN2CCC[C@@H]3CN(C(=O)c4ccco4)C[C@@H]32)s1,5.236,-10.02,-1.569
Cc1oc(-c2nc(C#N)c(NC(C)C)o2)cc1S(=O)(=O)N1CCCC1,-0.8728,-13.52,2.031
CN1[C@H](Cn2cncn2)C[C@@H]2CN(Cc3cccc(C#N)c3)CC[C@@H]21,16.75,8.001,-0.7505
Cc1cc(-c2cnn(CCNC(=O)c3cnn(C)c3)c2C2CC2)on1,4.324,0.7762,-
CC(O)CN1CCC(CN(C)CC(=O)NC(C)C)CC1 (stereo not given),-0.3652,-1.341,-7.327
O=C(NCCCn1cncn1)N1CCCC(N2CCCC2)C1 (stereo not given),1.492,23.97,-0.4717
O=C(NC[C@H]1OC[C@@H](NC2CCC(F)(F)CC2)[C@@H]1O)Nc1ccccc1,3.48,-7.975,-2.959
COCCN1CCN(Cc2nccs2)[C@H]2CS(=O)(=O)C[C@H]21,13.12,-1.477,-0.729
Cc1csc(CNc2ccc(-c3nc(C4CC4)no3)cn2)n1,0.8654,-1.886,-18.73
CC(C)c1cnc(CN(C)C2CCN(CCn3cc(C#N)cn3)C2)o1 (stereo not given),-0.3995,10.09,-0.8045
Cc1cccn2cc(C[S+]([O-])Cc3noc(C(C)C)n3)nc12 (stereo not given),6.671,-4.221,-4.179
CN1CCN(C(=O)[C@H]2CC[C@@H]3[C@@H](CCN3Cc3nccs3)O2)CC1,2.565,-4.738,-4.146
Cc1nc(-c2ccnn2C)cc(C2CCCN(S(C)(=O)=O)C2)n1 (stereo not given),1.096,-18.01,-5.418
CCCS(=O)(=O)N1CCC(NC(=O)c2cc(CC)c(C)s2)CC1,5.146,11.43,6.445
COc1ccc(Cn2c(C3CCNCC3)cc3cccnc32)cc1,5.972,-9.689,-0.5277
CC(C)Cc1cc(C(=O)NCC2CCCN(Cc3ccco3)C2)on1 (stereo not given),5.637,0.4608,0.3396
CC(C)(C)C(=O)c1ccsc1NC(=O)CCNC(=O)c1ccco1,5.296,-2.685,-3.818
O=C(C1CC(=O)N(C2CC2)C1)N1CCC(Oc2ccccc2Cl)CC1 (stereo not given),6.07,-18.29,2.29
CN(C)S(=O)(=O)N1C[C@H]2CCC[C@@]2(COCc2cccnc2)C1,1.232,7.139,-7.755
COc1ccc(S(=O)(=O)Nc2cccnc2-n2cncn2)c(C)c1,2.55,-11.38,-3.268
CN(CCC#N)C(=O)C(C)(C)Oc1ccc(C(N)=O)cc1,-1.924,-13.33,-
Cc1nn(C)c(Cl)c1CNCCOc1ccc2c(c1)OCO2,1.889,7.408,9.533
CCCn1cc(C(=O)NCc2nnc(-c3ccc(C)nc3)o2)c(C)n1,1.918,-25.47,0.06793
Cc1cc(C)n(CC2CN(c3ccc(C#N)cn3)CCO2)n1 (stereo not given),1.573,-39.61,-9.024

Some entries from above, unchanged:

structure	PfKRS1	ClpP1P2	MtTrpRS
CN(CCC#N)C(=O)C(C)(C)Oc1ccc(C(N)=O)cc1	-1.924	-13.33	-
CCN1CCN(C(=O)c2cnc3c(cnn3C3CCCC3)c2)CC1	-2.281	8.497	-8.55
O=C(NCCCn1cncn1)N1CCCC(N2CCCC2)C1 (stereo not given)	1.492	23.97	-0.4717
CC(C)Cc1cc(C(=O)NCC2CCCN(Cc3ccco3)C2)on1 (stereo not given)	5.637	0.4608	0.3396